Values quoted from earlier work as cited in patent US5441985A, “Treatment of lower urinary tract disorders with selective norepinephrine uptake inhibitors” (priority 1993, dated 1995).

Biological target: cholinergic receptors
Details: bladder homogenates; read-out: IC50 for displacement of tritiated-quinuclidinol benzoate (QNB) binding; cited from earlier work

CCN(CC)CC#CCOC(=O)C(O)(c1ccccc1)C1CCCCC1 (stereo not shown) [oxybutynin]
IC50: 1400 nM
